Reference: publication doi:10.1101/2020.06.13.147785
Results are given in words; binding and its absence hold for the method and conditions named. In cells and extracts the contact can be indirect. Some results given as binding are weak or reduced against the parent protein; the word gives no strength.

Protein sequences, listed by entry. Tags and fused reporters are not part of them.
UniProt Q9QXZ7: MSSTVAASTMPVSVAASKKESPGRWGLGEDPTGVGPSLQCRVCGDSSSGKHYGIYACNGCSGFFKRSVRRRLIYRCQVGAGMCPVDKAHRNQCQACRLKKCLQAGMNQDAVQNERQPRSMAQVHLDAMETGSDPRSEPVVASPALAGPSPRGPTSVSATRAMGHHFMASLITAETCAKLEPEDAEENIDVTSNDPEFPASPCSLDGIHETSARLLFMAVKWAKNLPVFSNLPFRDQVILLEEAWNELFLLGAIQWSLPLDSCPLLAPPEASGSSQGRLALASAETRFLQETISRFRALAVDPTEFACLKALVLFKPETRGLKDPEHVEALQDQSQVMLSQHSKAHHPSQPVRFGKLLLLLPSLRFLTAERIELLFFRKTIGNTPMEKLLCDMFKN

Molecular target: NR2E3 wild type (long isoform encoded by the 8 exons of mouse Nr2e3) (mouse) (UniProt Q9QXZ7)
Experiment: FRET or BRET

Substance: NR2E3 wild type (long isoform encoded by the 8 exons of mouse Nr2e3) (from UniProt Q9QXZ7 1-395)
- binding: binds
